This note sets out measurements from PMC9410885, “Structural assembly of the nucleic-acid-binding Thp3–Csn12–Sem1 complex functioning in mRNA splicing” (Nucleic Acids Research, 2022).

Construct, isoform or probe ends are uncertain for at least one entry. A weaker result is weaker than the reference pair of the same experiment.

Holding throughout (test): fluorescence polarization
In one series the test system is Thp3 + Csn12 + Sem1. To be noted: FP: 20 mM Tris-HCl pH 8.0, 150 mM NaCl, 2 mM MgCl2, 25 C, 50 nM 5'-FAM probe, protein 0-25.6 uM, 30 min, recombinant protein, protein details: 8xHis-GST N-terminal, removed by TEV,none,none, label: 5' FAM.
Series [1] concerns Thp3 K392E + Csn12 + Sem1. The conditions noted are these: FP: 20 mM Tris-HCl pH 8.0, 150 mM NaCl, 2 mM MgCl2, 25 C; 50 nM 5'-FAM probe, protein 0-25.6 uM, 30 min; recombinant protein; protein details: 8xHis-GST N-terminal, removed by TEV,none,none; label: 5' FAM; single-stranded DNA.
The test system of series [2] is Thp3 K448E + Csn12 + Sem1. To be noted: FP: 20 mM Tris-HCl pH 8.0, 150 mM NaCl, 2 mM MgCl2, 25 C; 50 nM 5'-FAM probe, protein 0-25.6 uM, 30 min; recombinant protein; protein details: 8xHis-GST N-terminal, removed by TEV,none,none; label: 5' FAM; single-stranded DNA.
Series [3] has as its system Thp3 R451E/K462E + Csn12 + Sem1. To be noted: FP: 20 mM Tris-HCl pH 8.0, 150 mM NaCl, 2 mM MgCl2, 25 C; 50 nM 5'-FAM probe, protein 0-25.6 uM, 30 min; recombinant protein; protein details: 8xHis-GST N-terminal, removed by TEV,none,none; label: 5' FAM; single-stranded DNA.
For series [4], the system named is Thp3 R451E + Csn12 + Sem1. The conditions noted are these: FP: 20 mM Tris-HCl pH 8.0, 150 mM NaCl, 2 mM MgCl2, 25 C; 50 nM 5'-FAM probe, protein 0-25.6 uM, 30 min; recombinant protein; protein details: 8xHis-GST N-terminal, removed by TEV,none,none; label: 5' FAM; single-stranded DNA.

Turning to AUAUAUAUAUAUAUA [AU-repeat ssRNA 15], in the series with Thp3 + Csn12 + Sem1, the binding result is listed as “binds more weakly”.
For TTTTATTTATTATTT [T-rich ssDNA 15], the binding result in the series on Thp3 + Csn12 + Sem1 (single-stranded DNA) is recorded as “binds more weakly”.
With TTTTATTTTATTTTTATTTT [T-rich ssDNA 20], the binding result in series [1], in series [2], in series [3] and in series [4] was “binds more weakly” each time.
